Test results taken from patent publication US7045138B2, “Composition for mitigation of insects and/or mollusca” (American Natural Technology Sciences, Inc., priority 2000, dated 2006).
Some of these results come from one statement about several compounds together.

System: Fire Ants
Test: Fire ant mound field tests of bait/borate formulations
Format: in vivo, Solenopsis invicta
Settings: raw agricultural wastes and commercially available baits
Experimental: The following components were tested either alone or in combinations for their ability to attract Fire Ants: • 1. Cow manure dropping in an infested area; • 2. Pelletized cow manure; • 3. Milk; • 4. Powdered, fresh and pelletized whey; • 5. Sugar solutions of varying concentrations; • 6. Raw fruit and vegetables of various kinds and concentrates; • 7. Various soft drinks containing sugar; • 8. Bacon and other raw meats; • 9. Vegetable and animal oils, both in liquid or solid; • 10. Dog and cat foods in bags, cans, or packaged in some other manner; • 11. Corn or other vegetable products in the form of meal, syrup, cracked, particles and flakes and other particles; • 12. Wheat and rice as bleached and unbleached, flower or granules; • 13. Millet seeds whole and crushed; • 14. Sunflower seeds whole, crushed and with various vegetable oils added; • 15. Microcapsules of whey and other materials, made to hold various, foods, etc.; and • 16. Capsules made of various vegetable water, sugar, starches, proteins, etc. that contain the bait and/or borates and/or DE.
Mounds were selected of varying sizes measured in diameter: • 1. Small mound (1 inch to 6 inches) • 2. Medium mound (6 inches to 3.0 feet) • 3. Large mound (3.0 feet and larger) • 4. Control
When possible, isolated mounds were selected.
The formulations were tested individually at different sites: • 1. […]

Disodium octoborate tetrahydrate [DOT]
mortality rate for Fire Ants: over 90%
